Measurements taken from the supplement of paper PMC7666118.
The list shows a part of the results.

Chains of the proteins cited; added tags and fusions are not shown. Lines headed by an entry give the natural chain unless they say otherwise; changes in a name come on top.
UniProt P52789: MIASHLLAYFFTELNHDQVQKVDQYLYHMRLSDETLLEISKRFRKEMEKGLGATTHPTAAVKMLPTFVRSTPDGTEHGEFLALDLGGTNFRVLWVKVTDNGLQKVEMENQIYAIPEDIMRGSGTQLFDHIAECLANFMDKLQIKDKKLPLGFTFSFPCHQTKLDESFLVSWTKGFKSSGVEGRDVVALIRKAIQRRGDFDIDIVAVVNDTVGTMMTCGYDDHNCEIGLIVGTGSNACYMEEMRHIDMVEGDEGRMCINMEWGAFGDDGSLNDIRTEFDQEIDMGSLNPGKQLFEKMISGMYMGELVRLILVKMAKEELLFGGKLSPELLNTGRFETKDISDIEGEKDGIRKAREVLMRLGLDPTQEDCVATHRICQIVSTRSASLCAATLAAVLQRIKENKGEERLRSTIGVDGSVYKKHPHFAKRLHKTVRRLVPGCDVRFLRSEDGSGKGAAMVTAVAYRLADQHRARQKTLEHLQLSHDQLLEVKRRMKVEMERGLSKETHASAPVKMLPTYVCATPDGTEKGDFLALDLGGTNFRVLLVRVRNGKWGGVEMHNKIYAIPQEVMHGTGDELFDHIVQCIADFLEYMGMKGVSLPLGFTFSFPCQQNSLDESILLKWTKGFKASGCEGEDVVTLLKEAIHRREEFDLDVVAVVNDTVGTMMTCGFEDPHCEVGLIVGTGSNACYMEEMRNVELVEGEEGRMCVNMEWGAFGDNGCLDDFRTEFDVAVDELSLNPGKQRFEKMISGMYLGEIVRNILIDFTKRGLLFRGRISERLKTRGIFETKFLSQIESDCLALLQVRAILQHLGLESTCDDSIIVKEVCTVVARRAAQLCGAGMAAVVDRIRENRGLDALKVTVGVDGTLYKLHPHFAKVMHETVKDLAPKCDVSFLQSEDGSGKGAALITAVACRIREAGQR
UniProt P10809, whole entry: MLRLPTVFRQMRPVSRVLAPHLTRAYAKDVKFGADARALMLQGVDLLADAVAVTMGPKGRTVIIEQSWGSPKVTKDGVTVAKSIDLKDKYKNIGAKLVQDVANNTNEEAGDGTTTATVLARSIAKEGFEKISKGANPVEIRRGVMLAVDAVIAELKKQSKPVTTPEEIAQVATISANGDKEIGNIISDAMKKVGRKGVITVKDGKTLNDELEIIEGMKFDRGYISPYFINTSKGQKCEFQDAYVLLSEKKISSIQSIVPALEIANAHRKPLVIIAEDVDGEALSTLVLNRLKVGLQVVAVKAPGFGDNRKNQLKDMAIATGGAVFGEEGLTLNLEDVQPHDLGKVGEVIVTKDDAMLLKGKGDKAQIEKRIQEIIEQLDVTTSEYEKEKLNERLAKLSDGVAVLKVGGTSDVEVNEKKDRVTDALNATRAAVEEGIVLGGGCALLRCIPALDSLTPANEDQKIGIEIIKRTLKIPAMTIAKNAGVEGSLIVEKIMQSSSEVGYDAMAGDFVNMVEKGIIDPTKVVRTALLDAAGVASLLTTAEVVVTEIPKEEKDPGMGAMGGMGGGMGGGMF
UniProt Q9Y3E0: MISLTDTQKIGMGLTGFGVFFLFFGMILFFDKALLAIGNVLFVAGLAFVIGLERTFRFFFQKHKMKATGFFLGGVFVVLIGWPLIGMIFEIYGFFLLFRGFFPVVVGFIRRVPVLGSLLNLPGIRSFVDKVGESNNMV
UniProt Q0VDF9: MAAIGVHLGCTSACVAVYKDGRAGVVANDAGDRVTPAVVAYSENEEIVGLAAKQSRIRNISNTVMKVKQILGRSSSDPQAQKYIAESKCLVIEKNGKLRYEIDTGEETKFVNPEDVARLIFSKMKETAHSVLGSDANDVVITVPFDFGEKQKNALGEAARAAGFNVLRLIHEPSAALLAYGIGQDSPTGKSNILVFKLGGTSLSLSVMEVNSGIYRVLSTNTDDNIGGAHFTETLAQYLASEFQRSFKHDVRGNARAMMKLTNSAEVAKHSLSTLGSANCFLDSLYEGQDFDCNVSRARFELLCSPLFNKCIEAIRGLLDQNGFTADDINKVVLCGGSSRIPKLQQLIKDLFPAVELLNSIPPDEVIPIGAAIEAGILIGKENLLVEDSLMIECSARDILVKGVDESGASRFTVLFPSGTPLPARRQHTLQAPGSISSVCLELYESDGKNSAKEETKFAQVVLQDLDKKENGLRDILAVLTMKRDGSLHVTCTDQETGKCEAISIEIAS
UniProt Q9P2D3: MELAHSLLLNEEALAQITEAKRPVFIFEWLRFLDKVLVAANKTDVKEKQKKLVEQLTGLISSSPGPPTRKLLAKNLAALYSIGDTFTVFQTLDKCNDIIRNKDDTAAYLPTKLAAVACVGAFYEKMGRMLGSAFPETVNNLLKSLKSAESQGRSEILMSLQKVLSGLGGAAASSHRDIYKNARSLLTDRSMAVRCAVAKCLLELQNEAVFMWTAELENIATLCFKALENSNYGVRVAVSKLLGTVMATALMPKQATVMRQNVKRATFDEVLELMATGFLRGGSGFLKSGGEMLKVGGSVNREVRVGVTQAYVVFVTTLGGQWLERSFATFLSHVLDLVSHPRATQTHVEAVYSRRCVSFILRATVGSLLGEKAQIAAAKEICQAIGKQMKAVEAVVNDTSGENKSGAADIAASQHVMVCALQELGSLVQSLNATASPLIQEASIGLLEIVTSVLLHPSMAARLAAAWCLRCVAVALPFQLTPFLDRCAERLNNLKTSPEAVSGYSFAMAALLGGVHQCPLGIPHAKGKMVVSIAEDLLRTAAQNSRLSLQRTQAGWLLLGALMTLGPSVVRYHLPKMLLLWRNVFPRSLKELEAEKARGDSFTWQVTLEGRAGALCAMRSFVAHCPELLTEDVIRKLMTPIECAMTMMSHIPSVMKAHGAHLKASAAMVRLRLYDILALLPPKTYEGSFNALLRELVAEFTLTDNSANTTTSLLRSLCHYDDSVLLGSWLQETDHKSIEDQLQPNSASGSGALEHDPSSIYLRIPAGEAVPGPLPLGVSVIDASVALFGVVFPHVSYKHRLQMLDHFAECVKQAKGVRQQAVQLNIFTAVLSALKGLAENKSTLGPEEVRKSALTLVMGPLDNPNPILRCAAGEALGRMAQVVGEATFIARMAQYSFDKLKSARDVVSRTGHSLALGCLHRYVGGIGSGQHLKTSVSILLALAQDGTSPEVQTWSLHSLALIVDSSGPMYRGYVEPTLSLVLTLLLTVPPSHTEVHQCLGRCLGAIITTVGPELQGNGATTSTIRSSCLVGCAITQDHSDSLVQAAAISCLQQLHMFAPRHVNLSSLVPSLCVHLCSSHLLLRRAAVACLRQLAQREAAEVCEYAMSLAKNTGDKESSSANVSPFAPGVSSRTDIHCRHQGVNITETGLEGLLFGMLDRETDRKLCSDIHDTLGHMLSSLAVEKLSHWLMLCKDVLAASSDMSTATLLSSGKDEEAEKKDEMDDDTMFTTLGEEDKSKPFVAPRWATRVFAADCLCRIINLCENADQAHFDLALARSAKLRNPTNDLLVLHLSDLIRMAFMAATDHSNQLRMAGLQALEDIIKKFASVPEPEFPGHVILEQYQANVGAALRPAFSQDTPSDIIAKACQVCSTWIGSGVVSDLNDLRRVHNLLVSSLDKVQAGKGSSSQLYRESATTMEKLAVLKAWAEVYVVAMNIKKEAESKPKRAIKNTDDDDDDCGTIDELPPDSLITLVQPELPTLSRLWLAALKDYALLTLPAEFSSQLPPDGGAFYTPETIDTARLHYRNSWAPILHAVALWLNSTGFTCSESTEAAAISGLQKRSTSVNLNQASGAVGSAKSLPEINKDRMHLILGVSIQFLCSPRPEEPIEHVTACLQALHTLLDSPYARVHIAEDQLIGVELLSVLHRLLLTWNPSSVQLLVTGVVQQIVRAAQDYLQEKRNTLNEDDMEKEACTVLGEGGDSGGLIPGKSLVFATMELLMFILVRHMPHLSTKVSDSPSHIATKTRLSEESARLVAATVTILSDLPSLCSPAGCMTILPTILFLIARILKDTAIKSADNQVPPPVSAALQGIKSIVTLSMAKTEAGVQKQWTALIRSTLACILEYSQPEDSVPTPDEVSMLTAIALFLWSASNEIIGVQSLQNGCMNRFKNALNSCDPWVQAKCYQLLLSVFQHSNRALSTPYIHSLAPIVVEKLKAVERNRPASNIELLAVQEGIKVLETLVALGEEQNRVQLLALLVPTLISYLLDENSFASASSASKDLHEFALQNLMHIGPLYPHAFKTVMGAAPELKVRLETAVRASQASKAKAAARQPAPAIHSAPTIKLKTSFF
UniProt Q00403, whole entry: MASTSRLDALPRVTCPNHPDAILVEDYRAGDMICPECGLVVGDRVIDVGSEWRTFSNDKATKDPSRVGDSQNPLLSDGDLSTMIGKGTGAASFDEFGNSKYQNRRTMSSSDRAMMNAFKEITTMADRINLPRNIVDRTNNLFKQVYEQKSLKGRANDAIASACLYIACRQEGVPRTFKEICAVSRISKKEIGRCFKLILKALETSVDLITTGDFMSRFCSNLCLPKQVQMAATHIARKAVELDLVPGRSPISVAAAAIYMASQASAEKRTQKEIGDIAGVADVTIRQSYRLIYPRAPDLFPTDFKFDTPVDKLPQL
UniProt Q9UK76: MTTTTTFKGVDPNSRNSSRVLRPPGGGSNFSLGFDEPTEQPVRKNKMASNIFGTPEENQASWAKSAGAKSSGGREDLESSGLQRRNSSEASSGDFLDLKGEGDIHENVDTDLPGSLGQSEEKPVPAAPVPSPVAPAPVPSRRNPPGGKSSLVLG
UniProt Q8TD30: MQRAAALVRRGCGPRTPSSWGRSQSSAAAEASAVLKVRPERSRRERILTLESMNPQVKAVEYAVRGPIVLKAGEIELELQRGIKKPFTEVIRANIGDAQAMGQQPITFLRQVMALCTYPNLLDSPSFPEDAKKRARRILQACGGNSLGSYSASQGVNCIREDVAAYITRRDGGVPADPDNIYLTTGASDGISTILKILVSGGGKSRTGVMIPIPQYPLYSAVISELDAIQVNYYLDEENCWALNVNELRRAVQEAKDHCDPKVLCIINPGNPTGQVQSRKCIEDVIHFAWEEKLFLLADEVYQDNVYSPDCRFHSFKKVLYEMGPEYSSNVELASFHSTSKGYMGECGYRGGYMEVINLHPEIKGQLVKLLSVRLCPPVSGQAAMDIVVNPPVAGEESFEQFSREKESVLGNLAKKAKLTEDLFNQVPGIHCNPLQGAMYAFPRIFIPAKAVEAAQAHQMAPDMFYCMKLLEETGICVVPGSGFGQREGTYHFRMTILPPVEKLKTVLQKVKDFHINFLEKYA
UniProt P69905, whole entry: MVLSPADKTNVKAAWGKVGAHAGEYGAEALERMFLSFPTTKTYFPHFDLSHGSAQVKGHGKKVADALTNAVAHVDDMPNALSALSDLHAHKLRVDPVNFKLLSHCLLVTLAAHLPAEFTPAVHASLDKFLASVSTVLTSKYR
UniProt O95757: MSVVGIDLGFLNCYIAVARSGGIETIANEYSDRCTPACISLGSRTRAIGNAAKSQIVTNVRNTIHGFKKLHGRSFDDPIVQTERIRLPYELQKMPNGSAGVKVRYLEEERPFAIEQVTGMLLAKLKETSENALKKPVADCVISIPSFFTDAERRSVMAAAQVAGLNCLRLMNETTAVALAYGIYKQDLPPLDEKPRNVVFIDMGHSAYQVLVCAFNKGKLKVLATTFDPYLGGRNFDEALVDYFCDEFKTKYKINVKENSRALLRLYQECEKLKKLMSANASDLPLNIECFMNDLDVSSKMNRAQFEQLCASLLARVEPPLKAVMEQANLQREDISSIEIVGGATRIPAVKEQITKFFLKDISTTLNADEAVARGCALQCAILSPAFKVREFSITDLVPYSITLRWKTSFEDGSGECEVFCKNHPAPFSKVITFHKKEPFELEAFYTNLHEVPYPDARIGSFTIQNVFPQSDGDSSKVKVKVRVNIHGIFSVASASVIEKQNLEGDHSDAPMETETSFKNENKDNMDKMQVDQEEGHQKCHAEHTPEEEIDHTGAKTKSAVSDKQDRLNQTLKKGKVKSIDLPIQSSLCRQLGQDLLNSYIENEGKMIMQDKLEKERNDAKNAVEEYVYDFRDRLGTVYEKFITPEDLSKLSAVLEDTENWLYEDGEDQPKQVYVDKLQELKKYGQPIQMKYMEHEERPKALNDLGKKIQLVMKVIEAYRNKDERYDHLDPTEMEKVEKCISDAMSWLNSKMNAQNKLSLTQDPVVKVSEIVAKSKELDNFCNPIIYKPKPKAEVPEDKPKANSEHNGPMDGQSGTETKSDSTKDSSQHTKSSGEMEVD
UniProt Q8IWL3: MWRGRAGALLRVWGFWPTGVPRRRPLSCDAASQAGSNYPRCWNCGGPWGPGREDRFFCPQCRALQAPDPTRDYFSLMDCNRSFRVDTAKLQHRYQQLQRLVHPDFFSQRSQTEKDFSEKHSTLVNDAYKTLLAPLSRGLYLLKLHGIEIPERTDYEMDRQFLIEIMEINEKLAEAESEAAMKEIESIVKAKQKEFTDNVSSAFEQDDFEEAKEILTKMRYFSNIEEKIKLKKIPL

What follows are targets tested with COc1ccc(Cn2ccc3cc(C)c(C(=O)NO)cc32)cc1 (assay: dose-dependent thermal stabilisation call (2D-TPP, DLPTP, 10% FDR) (binary (1 = stabilised)); higher = stabilised by the compound). Conditions: system: HL-60 intact cells; concentration range 0.04-10 µM.
Description: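 2D thermal proteome profiling in intact HL-60 cells treated with BRD-3811 (0, 0.04, 0.29, 2, 10 uM) for 90 min at 37 C, then heated 3 min at one of 12 temperatures (42-63.9 C). Soluble protein was quantified by TMT10 MS. The value is the DLPTP call of the paper: dose-dependent thermal stabilisation over all temperatures at 10% FDR (F-test of a dose-response against a flat model); one experiment, one call per tested protein.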

Target	dose-dependent thermal stabilisation call
HK2 (UniProt P52789)	inactive: 0
HSPD1 (UniProt P10809)	active: 1
GOLT1B (UniProt Q9Y3E0)	inactive: 0
HEATR5A (UniProt Q86XA9)	inactive: 0
HMGCS1 (UniProt Q01581)	inactive: 0
GTF2E1 (UniProt P29083)	inactive: 0
HPS6 (UniProt Q86YV9)	inactive: 0
GPR84 (UniProt Q9NQS5)	inactive: 0
HMGN2 (UniProt P05204)	inactive: 0
GNPAT (UniProt O15228)	inactive: 0
HARS2 (UniProt P49590)	inactive: 0
GRAMD1A (UniProt Q96CP6)	inactive: 0
HDGF2	inactive: 0
HSPA14 (UniProt Q0VDF9)	inactive: 0
HDHD1A (UniProt Q08623)	inactive: 0
HEATR5B (UniProt Q9P2D3)	inactive: 0
GTF2B (UniProt Q00403)	inactive: 0
HNRNPU (UniProt Q00839)	inactive: 0
HN1 (UniProt Q9UK76)	inactive: 0
GRHPR (UniProt Q9UBQ7)	inactive: 0
GTF3C2 (UniProt Q8WUA4)	inactive: 0
GOPC (UniProt Q9HD26)	inactive: 0
GPT2 (UniProt Q8TD30)	inactive: 0
HBA1 (UniProt P69905)	inactive: 0
GPS2 (UniProt Q13227)	inactive: 0
HSPA4L (UniProt O95757)	inactive: 0
HSCB (UniProt Q8IWL3)	inactive: 0

Part of the list above in another layout:
GTF3C2 (UniProt Q8WUA4)
  dose-dependent thermal stabilisation call: inactive: 0
GOPC (UniProt Q9HD26)
  dose-dependent thermal stabilisation call: inactive: 0
